In patent publication US9295673B2, “Combination of mTOR inhibitors and P13-kinase inhibitors, and uses thereof” (Intellikine LLC, priority 2011, dated 2016):

Molecular target: T1, mTOR (Homo sapiens, UniProt P42345)
T1 construct: purchased Invitrogen
Experiment: mTOR kinase inhibition assay (radiometric or LanthaScreen TR-FRET)
Format: biochemical
Conditions: read-out: mTORC IC50

With `Nc1nc2cc(-c3ccc4nccc(-c5ccncc5)c4c3)ccc2o1` [Compound 1] the IC50 was less than 1000 nM.
